Here are results for one substance from article PMC10517209.

The chains behind the UniProt entries cited, without tags or fusion partners.
UniProt P08670: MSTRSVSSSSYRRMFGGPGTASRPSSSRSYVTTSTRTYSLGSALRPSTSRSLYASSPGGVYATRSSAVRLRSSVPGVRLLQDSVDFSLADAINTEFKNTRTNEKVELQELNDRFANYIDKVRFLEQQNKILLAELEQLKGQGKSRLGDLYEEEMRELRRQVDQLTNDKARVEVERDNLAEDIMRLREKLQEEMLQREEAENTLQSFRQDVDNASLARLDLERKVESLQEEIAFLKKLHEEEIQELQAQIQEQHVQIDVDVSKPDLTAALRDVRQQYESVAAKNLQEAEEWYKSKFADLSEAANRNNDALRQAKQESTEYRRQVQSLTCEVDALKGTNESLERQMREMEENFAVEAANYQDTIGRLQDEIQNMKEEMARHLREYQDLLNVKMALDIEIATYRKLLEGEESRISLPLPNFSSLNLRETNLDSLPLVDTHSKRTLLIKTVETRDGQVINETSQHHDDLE
UniProt Q86TM6: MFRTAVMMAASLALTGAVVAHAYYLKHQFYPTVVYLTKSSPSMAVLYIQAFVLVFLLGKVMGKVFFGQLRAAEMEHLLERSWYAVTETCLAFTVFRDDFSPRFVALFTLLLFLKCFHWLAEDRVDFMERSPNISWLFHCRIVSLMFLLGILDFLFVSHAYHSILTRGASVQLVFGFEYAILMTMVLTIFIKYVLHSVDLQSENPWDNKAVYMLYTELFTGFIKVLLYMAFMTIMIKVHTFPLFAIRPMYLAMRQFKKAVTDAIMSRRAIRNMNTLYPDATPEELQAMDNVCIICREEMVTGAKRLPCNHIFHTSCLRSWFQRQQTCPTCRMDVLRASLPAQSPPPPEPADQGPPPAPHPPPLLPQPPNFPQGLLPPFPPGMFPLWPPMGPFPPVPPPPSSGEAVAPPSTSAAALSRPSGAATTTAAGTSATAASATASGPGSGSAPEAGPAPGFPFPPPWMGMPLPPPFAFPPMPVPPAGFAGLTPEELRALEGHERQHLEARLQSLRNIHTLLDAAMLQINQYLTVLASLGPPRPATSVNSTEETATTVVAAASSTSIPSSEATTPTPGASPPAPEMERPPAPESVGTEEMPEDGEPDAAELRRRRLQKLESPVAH

These are yes or no findings as the source states them, for the method shown. In cells and extracts the contact can be indirect. Some results given as binding are weak or reduced against the parent protein; the word gives no strength.

The target in this assay is Vimentin (human (endogenous in C28/I2)) (UniProt P08670). The assay is described as follows: co-IP; cells treated with 20 uM MG132 for 8 h, then lysed; Pierce Classic Magnetic IP Kit with antibodies (1:100) to FLAG or Vimentin; western blot; control cells and cells with circARPC1B overexpression or knockdown. (In general: Immunoblotting shows a protein as a band on a membrane.)

For the substance “E3 ligase synoviolin 1 (SYVN1) (from UniProt Q86TM6 1-617) (enzyme)”, the binding result is on record as “binds”.
